Common to all, as to assay: proximity labelling; TurboID fused to RAG1 or RAG2 (co-expressed with the other subunit) in HEK293T; 50 uM D-biotin, 37°C, 15 min; lysis with 8 M urea, streptavidin beads, on-bead trypsin, label-free LC-MS/MS; control TurboID-HA alone; three biological replicates
Assay [1] deals with T1, TurboID-RAG1 (TurboID fused to the N-terminus of full-length human RAG1, C-terminal HA tag) (human) (UniProt P15918).
T1 sequence: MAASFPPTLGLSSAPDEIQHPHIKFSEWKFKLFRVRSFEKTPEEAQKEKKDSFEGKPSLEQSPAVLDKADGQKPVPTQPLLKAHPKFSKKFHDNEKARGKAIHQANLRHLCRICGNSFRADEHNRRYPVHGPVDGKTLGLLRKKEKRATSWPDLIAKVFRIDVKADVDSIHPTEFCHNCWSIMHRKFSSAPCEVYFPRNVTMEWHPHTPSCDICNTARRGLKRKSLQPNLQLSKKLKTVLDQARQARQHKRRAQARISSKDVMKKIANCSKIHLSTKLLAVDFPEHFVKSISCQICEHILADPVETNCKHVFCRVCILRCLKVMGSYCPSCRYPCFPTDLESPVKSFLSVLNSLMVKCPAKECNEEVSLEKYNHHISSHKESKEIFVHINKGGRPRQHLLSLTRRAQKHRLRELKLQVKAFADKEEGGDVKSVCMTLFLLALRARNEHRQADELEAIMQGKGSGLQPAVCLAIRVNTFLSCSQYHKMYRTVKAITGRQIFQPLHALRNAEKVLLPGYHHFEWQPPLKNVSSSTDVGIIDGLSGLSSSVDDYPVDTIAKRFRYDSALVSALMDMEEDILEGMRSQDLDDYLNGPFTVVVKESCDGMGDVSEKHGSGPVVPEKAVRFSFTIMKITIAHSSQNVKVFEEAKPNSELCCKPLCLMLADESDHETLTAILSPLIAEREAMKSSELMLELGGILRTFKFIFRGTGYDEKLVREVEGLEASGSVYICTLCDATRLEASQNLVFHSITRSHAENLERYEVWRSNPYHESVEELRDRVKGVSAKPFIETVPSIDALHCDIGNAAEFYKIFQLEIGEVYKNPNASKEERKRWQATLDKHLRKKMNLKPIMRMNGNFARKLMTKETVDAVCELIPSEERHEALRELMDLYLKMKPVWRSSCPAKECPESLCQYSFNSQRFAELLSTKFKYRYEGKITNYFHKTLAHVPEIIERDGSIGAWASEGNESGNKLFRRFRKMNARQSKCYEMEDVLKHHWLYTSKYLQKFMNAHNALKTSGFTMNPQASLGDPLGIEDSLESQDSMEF

Amino acid sequences for entries named in this document (tags omitted).
UniProt O00505: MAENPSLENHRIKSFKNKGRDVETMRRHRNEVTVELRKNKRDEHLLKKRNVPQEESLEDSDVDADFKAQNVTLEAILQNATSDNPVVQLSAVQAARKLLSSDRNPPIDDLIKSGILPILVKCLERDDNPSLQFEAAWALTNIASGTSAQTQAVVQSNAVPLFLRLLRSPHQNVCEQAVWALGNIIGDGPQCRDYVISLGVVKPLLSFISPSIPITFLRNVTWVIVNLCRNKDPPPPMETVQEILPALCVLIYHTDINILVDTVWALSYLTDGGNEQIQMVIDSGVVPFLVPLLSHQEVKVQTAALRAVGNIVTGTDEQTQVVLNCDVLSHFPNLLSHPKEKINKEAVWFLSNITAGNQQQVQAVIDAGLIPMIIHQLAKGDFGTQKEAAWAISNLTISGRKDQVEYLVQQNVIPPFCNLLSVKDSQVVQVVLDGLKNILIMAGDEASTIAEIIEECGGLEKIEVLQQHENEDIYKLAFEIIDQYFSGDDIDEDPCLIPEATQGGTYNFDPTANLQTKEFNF
UniProt P09884: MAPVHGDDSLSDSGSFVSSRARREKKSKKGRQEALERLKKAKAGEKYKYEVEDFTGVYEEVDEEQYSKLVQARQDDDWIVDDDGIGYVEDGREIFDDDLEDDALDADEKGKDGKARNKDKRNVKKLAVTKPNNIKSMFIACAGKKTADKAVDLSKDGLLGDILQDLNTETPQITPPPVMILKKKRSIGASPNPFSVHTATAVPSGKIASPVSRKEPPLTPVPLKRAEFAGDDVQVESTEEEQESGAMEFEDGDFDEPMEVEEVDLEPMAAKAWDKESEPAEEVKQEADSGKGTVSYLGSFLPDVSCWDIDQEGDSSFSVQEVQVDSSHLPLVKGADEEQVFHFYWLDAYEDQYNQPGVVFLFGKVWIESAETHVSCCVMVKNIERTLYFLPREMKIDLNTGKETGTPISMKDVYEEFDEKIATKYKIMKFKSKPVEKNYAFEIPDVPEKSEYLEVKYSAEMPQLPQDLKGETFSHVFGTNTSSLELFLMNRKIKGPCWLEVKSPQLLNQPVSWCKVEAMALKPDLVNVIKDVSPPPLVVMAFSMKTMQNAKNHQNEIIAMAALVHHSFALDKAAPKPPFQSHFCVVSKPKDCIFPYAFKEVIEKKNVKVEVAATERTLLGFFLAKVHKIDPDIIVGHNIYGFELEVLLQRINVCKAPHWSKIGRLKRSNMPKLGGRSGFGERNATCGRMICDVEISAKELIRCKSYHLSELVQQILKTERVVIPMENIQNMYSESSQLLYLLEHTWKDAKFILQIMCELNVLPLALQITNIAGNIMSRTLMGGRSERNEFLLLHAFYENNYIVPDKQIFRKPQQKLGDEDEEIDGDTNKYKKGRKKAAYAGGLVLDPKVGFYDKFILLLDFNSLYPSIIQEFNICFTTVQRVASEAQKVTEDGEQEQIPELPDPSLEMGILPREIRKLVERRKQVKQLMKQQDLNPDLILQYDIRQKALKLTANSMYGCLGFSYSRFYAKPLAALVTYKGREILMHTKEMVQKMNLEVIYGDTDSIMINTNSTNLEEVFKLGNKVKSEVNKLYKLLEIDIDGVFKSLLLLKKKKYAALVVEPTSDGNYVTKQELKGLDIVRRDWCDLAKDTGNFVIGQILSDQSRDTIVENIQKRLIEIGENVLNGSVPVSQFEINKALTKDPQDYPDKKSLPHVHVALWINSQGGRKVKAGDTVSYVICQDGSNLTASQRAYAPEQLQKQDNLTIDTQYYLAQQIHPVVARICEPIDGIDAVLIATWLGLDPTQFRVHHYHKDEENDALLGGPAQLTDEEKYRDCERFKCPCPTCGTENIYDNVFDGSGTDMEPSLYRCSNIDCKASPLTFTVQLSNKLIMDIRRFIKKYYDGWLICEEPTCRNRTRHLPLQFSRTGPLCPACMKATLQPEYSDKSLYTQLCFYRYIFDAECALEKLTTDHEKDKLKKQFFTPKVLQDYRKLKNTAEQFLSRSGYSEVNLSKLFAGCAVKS
UniProt Q14186: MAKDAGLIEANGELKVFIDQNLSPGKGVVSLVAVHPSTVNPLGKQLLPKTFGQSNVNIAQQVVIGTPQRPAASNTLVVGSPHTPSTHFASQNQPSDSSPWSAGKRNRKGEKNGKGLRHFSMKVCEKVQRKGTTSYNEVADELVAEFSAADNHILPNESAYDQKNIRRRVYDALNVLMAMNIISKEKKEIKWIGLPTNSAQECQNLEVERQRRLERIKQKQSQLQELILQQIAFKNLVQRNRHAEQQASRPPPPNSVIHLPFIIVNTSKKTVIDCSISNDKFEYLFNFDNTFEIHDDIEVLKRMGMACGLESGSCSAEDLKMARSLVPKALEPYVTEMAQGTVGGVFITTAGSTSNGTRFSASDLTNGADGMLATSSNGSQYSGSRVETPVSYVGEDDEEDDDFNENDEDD
UniProt Q9Y4B6: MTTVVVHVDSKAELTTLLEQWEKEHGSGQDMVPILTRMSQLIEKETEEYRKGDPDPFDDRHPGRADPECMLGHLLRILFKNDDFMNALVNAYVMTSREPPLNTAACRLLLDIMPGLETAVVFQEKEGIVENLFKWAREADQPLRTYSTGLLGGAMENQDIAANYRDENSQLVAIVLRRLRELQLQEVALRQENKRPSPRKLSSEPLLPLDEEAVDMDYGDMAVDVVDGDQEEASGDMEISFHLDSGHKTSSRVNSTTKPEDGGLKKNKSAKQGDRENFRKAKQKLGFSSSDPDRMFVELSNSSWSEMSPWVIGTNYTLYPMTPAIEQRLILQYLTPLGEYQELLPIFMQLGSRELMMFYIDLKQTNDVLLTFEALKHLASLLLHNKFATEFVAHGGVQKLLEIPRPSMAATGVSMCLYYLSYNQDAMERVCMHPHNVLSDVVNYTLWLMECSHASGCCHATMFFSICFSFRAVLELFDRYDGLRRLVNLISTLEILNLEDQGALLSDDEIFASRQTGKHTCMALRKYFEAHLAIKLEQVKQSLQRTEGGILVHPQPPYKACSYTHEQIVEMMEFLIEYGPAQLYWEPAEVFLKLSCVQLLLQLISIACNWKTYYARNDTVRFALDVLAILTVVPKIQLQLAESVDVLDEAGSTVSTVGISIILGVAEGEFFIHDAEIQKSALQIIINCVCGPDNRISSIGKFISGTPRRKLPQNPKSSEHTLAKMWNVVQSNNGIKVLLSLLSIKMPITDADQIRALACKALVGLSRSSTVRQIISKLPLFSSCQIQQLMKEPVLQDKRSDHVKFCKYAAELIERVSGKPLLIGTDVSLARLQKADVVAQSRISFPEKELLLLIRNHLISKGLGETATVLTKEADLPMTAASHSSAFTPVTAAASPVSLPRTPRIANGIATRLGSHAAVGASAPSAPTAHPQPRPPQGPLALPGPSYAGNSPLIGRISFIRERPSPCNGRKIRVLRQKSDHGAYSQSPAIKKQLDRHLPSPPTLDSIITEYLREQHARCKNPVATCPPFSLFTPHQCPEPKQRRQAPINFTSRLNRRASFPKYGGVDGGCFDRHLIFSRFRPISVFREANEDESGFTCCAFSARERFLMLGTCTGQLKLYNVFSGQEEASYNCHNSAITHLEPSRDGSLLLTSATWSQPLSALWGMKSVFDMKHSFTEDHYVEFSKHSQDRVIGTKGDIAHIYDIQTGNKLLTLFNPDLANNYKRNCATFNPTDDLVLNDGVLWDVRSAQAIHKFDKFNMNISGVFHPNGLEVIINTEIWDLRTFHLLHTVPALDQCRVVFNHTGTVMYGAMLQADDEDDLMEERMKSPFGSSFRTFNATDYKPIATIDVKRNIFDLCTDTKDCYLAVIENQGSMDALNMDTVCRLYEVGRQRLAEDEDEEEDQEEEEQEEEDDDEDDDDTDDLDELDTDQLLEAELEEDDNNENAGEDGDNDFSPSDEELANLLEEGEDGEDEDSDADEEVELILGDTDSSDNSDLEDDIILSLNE

For assay [2], the target named is T2, TurboID-RAG2 (TurboID fused to the N-terminus of full-length human RAG2) (human) (UniProt P55895).
T2 sequence: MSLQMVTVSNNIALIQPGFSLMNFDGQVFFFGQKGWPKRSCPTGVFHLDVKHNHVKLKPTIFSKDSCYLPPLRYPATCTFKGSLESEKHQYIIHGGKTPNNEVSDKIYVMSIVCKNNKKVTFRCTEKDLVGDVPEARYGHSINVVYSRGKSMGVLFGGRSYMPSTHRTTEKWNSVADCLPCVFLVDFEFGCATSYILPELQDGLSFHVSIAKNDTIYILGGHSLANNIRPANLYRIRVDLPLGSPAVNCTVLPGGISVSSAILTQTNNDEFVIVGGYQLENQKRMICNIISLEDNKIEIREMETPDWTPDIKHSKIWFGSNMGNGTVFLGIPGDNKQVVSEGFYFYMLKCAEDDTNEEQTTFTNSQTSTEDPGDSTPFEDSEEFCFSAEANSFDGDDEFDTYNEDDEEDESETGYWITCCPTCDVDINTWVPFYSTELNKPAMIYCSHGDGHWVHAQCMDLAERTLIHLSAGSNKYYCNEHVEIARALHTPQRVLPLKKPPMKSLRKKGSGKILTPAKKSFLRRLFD

Assay [3] deals with T1, TurboID-RAG1 (TurboID fused to the N-terminus of full-length human RAG1, C-terminal HA tag) (human). The source holds these as a separate data set.

Where two headings read alike, the source gives them in different places. No constants are given. Whether binding was seen depends on the method and setting. In cells and extracts the contact can be indirect. A yes stands for co-enrichment or nearness to the bait. Other partners may have been found. Tags and fused reporters may be left off the sequences shown.

Take “KPNA3 (Karyopherin Subunit Alpha 3), endogenous (from UniProt O00505 1-521)”: the binding entry in assay [1] is reported as “binds”. As to “POLA1, endogenous (from UniProt P09884 1-1462)”, in assay [1], the binding entry is reported as “binds”. On the same count and under the same terms, under “TFDP1, endogenous (from UniProt Q14186 1-410)” stands “binds”; under “VprBP (Vpr-binding protein), endogenous (from UniProt Q9Y4B6 1-1507)”, “binds”.

B1: NUP37 (Nucleoporin 37), endogenous (protein, UniProt Q8NFH4 1-326)
chain: MKQDASRNAAYTVDCEDYVHVVEFNPFENGDSGNLIAYGGNNYVVIGTCTFQEEEADVEGIQYKTLRTFHHGVRVDGIAWSPETRLDSLPPVIKFCTSAADMKIRLFTSDLQDKNEYKVLEGHTDFINGLVFDPKEGQEIASVSDDHTCRIWNLEGVQTAHFVLHSPGMSVCWHPEETFKLMVAEKNGTIRFYDLLAQQAILSLESEQVPLMSAHWCLKNTFKVGAVAGNDWLIWDITRSSYPQNKRPVHMDRACLFRWSTISENLFATTGYPGKMASQFQIHHLGHPQPILMGSVAVGSGLSWHRTLPLCVIGGDHKLLFWVTEV
Regarding B1, the binding entry in assay [2] is “binds”.

B2: NUP133, endogenous (protein, UniProt Q8WUM0 1-1156)
chain: MFPAAPSPRTPGTGSRRGPLAGLGPGSTPRTASRKGLPLGSAVSSPVLFSPVGRRSSLSSRGTPTRMFPHHSITESVNYDVKTFGSSLPVKVMEALTLAEVDDQLTINIDEGGWACLVCKEKLIIWKIALSPITKLSVCKELQLPPSDFHWSADLVALSYSSPSGEAHSTQAVAVMVATREGSIRYWPSLAGEDTYTEAFVDSGGDKTYSFLTAVQGGSFILSSSGSQLIRLIPESSGKIHQHILPQGQGMLSGIGRKVSSLFGILSPSSDLTLSSVLWDRERSSFYSLTSSNISKWELDDSSEKHAYSWDINRALKENITDAIWGSESNYEAIKEGVNIRYLDLKQNCDGLVILAAAWHSADNPCLIYYSLITIEDNGCQMSDAVTVEVTQYNPPFQSEDLILCQLTVPNFSNQTAYLYNESAVYVCSTGTGKFSLPQEKIVFNAQGDSVLGAGACGGVPIIFSRNSGLVSITSRENVSILAEDLEGSLASSVAGPNSESMIFETTTKNETIAQEDKIKLLKAAFLQYCRKDLGHAQMVVDELFSSHSDLDSDSELDRAVTQISVDLMDDYPASDPRWAESVPEEAPGFSNTSLIILHQLEDKMKAHSFLMDFIHQVGLFGRLGSFPVRGTPMATRLLLCEHAEKLSAAIVLKNHHSRLSDLVNTAILIALNKREYEIPSNLTPADVFFREVSQVDTICECLLEHEEQVLRDAPMDSIEWAEVVINVNNILKDMLQAASHYRQNRNSLYRREESLEKEPEYVPWTATSGPGGIRTVIIRQHEIVLKVAYPQADSNLRNIVTEQLVALIDCFLDGYVSQLKSVDKSSNRERYDNLEMEYLQKRSDLLSPLLSLGQYLWAASLAEKYCDFDILVQMCEQTDNQSRLQRYMTQFADQNFSDFLFRWYLEKGKRGKLLSQPISQHGQLANFLQAHEHLSWLHEINSQELEKAHATLLGLANMETRYFAKKKTLLGLSKLAALASDFSEDMLQEKIEEMAEQERFLLHQETLPEQLLAEKQLNLSAMPVLTAPQLIGLYICEENRRANEYDFKKALDLLEYIDEEEDININDLKLEILCKALQRDNWSSSDGKDDPIEVSKDSIFVKILQKLLKDGIQLSEYLPEVKDLLQADQLGSLKSNPYFEFVLKANYEYYVQGQI
For B2, the binding entry in assay [2] is on record as “binds”.

B3: RB1, endogenous (protein, UniProt P06400 1-928)
chain: MPPKTPRKTAATAAAAAAEPPAPPPPPPPEEDPEQDSGPEDLPLVRLEFEETEEPDFTALCQKLKIPDHVRERAWLTWEKVSSVDGVLGGYIQKKKELWGICIFIAAVDLDEMSFTFTELQKNIEISVHKFFNLLKEIDTSTKVDNAMSRLLKKYDVLFALFSKLERTCELIYLTQPSSSISTEINSALVLKVSWITFLLAKGEVLQMEDDLVISFQLMLCVLDYFIKLSPPMLLKEPYKTAVIPINGSPRTPRRGQNRSARIAKQLENDTRIIEVLCKEHECNIDEVKNVYFKNFIPFMNSLGLVTSNGLPEVENLSKRYEEIYLKNKDLDARLFLDHDKTLQTDSIDSFETQRTPRKSNLDEEVNVIPPHTPVRTVMNTIQQLMMILNSASDQPSENLISYFNNCTVNPKESILKRVKDIGYIFKEKFAKAVGQGCVEIGSQRYKLGVRLYYRVMESMLKSEEERLSIQNFSKLLNDNIFHMSLLACALEVVMATYSRSTSQNLDSGTDLSFPWILNVLNLKAFDFYKVIESFIKAEGNLTREMIKHLERCEHRIMESLAWLSDSPLFDLIKQSKDREGPTDHLESACPLNLPLQNNHTAADMYLSPVRSPKKKGSTTRVNSTANAETQATSAFQTQKPLKSTSLSLFYKKVYRLAYLRLNTLCERLLSEHPELEHIIWTLFQHTLQNEYELMRDRHLDQIMMCSMYGICKVKNIDLKFKIIVTAYKDLPHAVQETFKRVLIKEEEYDSIIVFYNSVFMQRLKTNILQYASTRPPTLSPIPHIPRSPYKFPSSPLRIPGGNIYISPLKSPYKISEGLPTPTKMTPRSRILVSIGESFGTSEKFQKINQMVCNSDRVLKRSAEGSNPPKPLKKLRFDIEGSDEADGSKHLPGESKFQQKLAEMTSTRTRMQKQKMNDSMDTSNKEEK
With B3, in assay [3], the binding entry is “binds”.

Values taken from paper PMC13107022.
